# Measured values published in US20040006094A1, “4-pyrimidinamine derivatives, pharmaceutical compositions and related methods” (priority 2000, published 2004).
# Target: differentiated P19 neurons
# Assay: Differentiated P19 excitotoxicity assay: neuroprotection by known kinase inhibitors against glutamate/glycine (Alamar Blue, CFDA)
# Type: cell-based, murine
# Settings: 3 mM glutamate, 1 mM glycine; mean of three separate curves
# Protocol: Data points are the average±standard error of three separate experiments.
# These cells were used to measure the effects of various known kinase inhibitors (Compound Identification (ID) column in Table I) upon cytotoxicity-induced by NMDA. First, P19 cells were differentiated as described in Example 2. Then cells were exposed to 3 mM of glutamate in the presence of 1 mM glycine.
# Cell viability was determined. Compounds that prevented excitotoxicity were determined by measuring the percentage of viable cells compared to differentiated P19 cells that were not presented with a toxic insult (Table I).
# Cell viability was measured using two methods. The first method was a confocal, single-cell fluorescence imaging-based method using the live cell dye carboxy-fluorescein diacetate (CFDA). CFDA labels the cell bodies and processes of living cells. […] CFDA fluorescence was measured using a modified Attofluor Imager device (Atto Instruments, Rockville Pike, Md.). […]
# The second method for measuring cell viability was a plate reader method. […] Baseline fluorescence counts were read at room temperature in a Wallac plate reader immediately after addition of Alamar blue. Fluorescence counts of cell viability were taken the same way after 1 hour incubation at 37° C. Fluorescence was expressed as a percent of control, untreated cells after subtraction of background fluorescence. […]
smiles,measurement,value
C[S+]([O-])c1ccc(-c2nc(-c3ccncc3)c(-c3ccc(F)cc3)[nH]2)cc1 (stereo not shown) [SB203580],IC50 for Neuroprotection [lower-upper 95% C.I.],Ineffective
